A short description of this experiment: qHTS Assay for Lipid Storage Modulators in Drosophila S3 Cells.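 For cell number change: cells counted by Cell Tracker Red CMTPX staining in the red channel.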 To be noted: BODIPY lipid droplet fluorescence, 18-24 h; for cell number change: measured here: cell count max response, cells fed with added oleic acid. In short, it runs like this:
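Drosophila S3 cells loaded with oleic acid (400 uM, as added) and compounds at several concentrations; lipid droplets imaged by 488-nm laser-scanning cytometry, 500–530 nm intensity and object ratio to cell channel. Percent activity normalized to 20 uM Triacsin C.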
(In general: qHTS replaces the single test concentration by a dilution series.)

Setting [1] is: measured here: cell number channel AC50, cells fed with added oleic acid.
Setting [2] is: measured here: lipid fluorescence (Fed channel) AC50, cells fed with added oleic acid.

Some of the results follow. Further columns of the screen follow, without active or inactive calls. Most of these compounds were active or inconclusive in the main read-out, so they are no random draw. Potencies come from curve fits of mixed quality, noted in brackets.

As a reminder, the AC50 is the midpoint of the concentration-response curve, whichever way the signal moves. Lower therefore signals greater potency.

For `Cc1c(C(=O)Nc2ccc(S(=O)(=O)Nc3ncccn3)cc2)oc2ccc(Cl)cc12`, the cell number change is 35.7%. For the same compound, under setting [1], the AC50 is 25.9 µM [rising, single point].

As for `CCOc1ccc(CCNC(=O)CN2C(=O)c3cccnc3Oc3ccc(C)cc32)cc1OCC`, the cell number change is -32.9%. Moreover, under setting [1], the half-maximal activity concentration (AC50) was 8.2 µM [falling, partial curve]. For the same compound, the AC50 under setting [2] is 2.59 µM [falling, full curve].

`OC(CN1CCCC(C(F)(F)F)C1)c1ccccc1` (stereo unspecified): the cell number change turned out to be 10.8%.

For `O=C(NCCNC(=O)c1cc(OCC(F)(F)F)ccc1OCC(F)(F)F)Nc1ccc(Cl)cc1`, the cell number change was determined as 0.14%.

In the case of `O=C(COc1ccc(Cl)cc1Cl)Nc1ccc(Cl)cn1`, the cell number change was 7.58%. In addition, the concentration at half-maximal activity (AC50) under setting [1] was 2.06 µM [rising, partial curve, poor fit].

On to `COc1cccc(CNS(=O)(=O)c2c(C)nc3scc(C)n3c2=O)c1`, for which the cell number change was -4.2%. In addition, the concentration at half-maximal activity (AC50) under setting [2] was 29.1 µM [rising, single point].

As to `O=C(c1cc(-c2ccncc2)nc2ccccc12)N1CCOCC1`, the AC50 under setting [2] is 6.51 µM [rising, single point].

For the compound `N#Cc1c(NC(=O)CSCC(=O)O)sc2c1CCCC2`, the cell number change was found to be 1.22%. Besides, under setting [2], the AC50 was 3.66 µM [falling, full curve, poor fit].

Take `N#Cc1cccc(S(=O)(=O)NCC(=O)OCC(=O)NCc2ccccc2)c1`: the cell number change is -9.74%. The concentration at half-maximal activity (AC50) under setting [2] was 3.66 µM [rising, single point].

Regarding `O=C(Nc1ccc(NC(=O)c2cccs2)cc1)c1cccs1`, the cell number change turned out to be 107%. In addition, the half-maximal activity concentration (AC50) under setting [1] is 25.9 µM [rising, partial curve]. Moreover, under setting [2], the AC50 was 0.58 µM [falling, single point].

Regarding `Cc1ccc(S(=O)(=O)Nc2ccccc2CNC2CCCCC2)cc1`, the cell number change was -8.47%. The AC50 under setting [1] was 0.731 µM [falling, full curve, poor fit]. Further, the AC50 under setting [2] is 0.731 µM [falling, full curve].

Regarding `CSc1nncc(/C(C)=N/O)n1`, under setting [2], the AC50 was 6.51 µM [falling, single point].

On to `COc1ccc(N(CC(=O)Nc2cccc(N(C)S(C)(=O)=O)c2)S(=O)(=O)c2ccccc2)cc1Cl`, for which the cell number change is -13.8%. Further, the AC50 under setting [2] was 9.2 µM [falling, partial curve, poor fit].

`Nc1nc(SCC(=O)N2CCCC2)[nH]c(=O)c1NC(=O)c1ccco1`: the cell number change was -19%. For the same compound, the AC50 under setting [2] is 3.66 µM [falling, full curve, poor fit].

`Cc1n(Cc2ccccc2)c2ccccc2[n+]1Cc1ccccc1`: the cell number change was -16.1%. Further, under setting [2], the concentration at half-maximal activity (AC50) was 29.1 µM [falling, single point].

On to `CC(=O)Nc1ccc(S(=O)(=O)N2CCC(c3nc4ccccc4[nH]3)CC2)cc1`, for which the half-maximal activity concentration (AC50) under setting [1] is 0.13 µM [rising, full curve, poor fit].

For `O=c1c2oc3ccccc3c2ncn1Cc1ccccc1F`, the concentration at half-maximal activity (AC50) under setting [2] is 6.51 µM [falling, single point].

For the compound `CC(C)(C)c1cc[n+](CC(=O)Nc2cc(C(F)(F)F)ccc2N2CCOCC2)cc1`, the cell number change is -32.7%. The AC50 under setting [1] was 0.00517 µM [falling, full curve, poor fit].

For `O=C(c1cc(S(=O)(=O)N2CCOCC2)ccc1Cl)N1CCC(Cc2ccccc2)CC1`, the cell number change was determined as 31.9%. Also, the concentration at half-maximal activity (AC50) under setting [1] was 0.00411 µM [rising, full curve, poor fit]. The half-maximal activity concentration (AC50) under setting [2] was 29.1 µM [rising, partial curve, poor fit].

As for `COc1cccc(CN(C)C(=O)c2ccc3nccnc3c2)c1`, the cell number change stood at 1.07%. The AC50 under setting [2] was 0.082 µM [rising, full curve, poor fit].

On to `COc1ccc(OCC(=O)N/N=C(\C)c2ccc(-n3ccnc3)cc2)cc1`, for which the cell number change turned out to be 38.6%. Besides, the half-maximal activity concentration (AC50) under setting [2] was 0.58 µM [rising, partial curve, poor fit].

Consider `O=C(Cc1ccc([N+](=O)[O-])cc1)c1c(O)cc(O)cc1O`, for which the cell number change was found to be 14.6%. Also, under setting [2], the AC50 was 2.91 µM [rising, single point].

With `CC(=O)Nc1c(Cl)n(C(C)=O)c2ccccc12`, the cell number change was determined as 10.5%. In addition, under setting [2], the half-maximal activity concentration (AC50) was 23.1 µM [rising, single point].

As to `Oc1ccccc1/C=N/Nc1ncc(Br)cn1`, the cell number change was -2.99%.

For `COc1ccc(CNC(=O)C2COc3ccccc3O2)c(OC)c1` (stereo unspecified), the cell number change turned out to be 3.76%. In addition, the half-maximal activity concentration (AC50) under setting [2] is 2.31 µM [rising, full curve, poor fit].

For the compound `CC(=O)O[C@H]1[C@H](C)OC=C[C@@H]1OC(C)=O`, the cell number change worked out at 12.6%. For the same compound, the AC50 under setting [2] was 1.84 µM [rising, full curve, poor fit].

Regarding `CCN(/C=N/c1sc2c(c1C#N)CCCCC2)CC`, the cell number change is -26.8%. The AC50 under setting [1] is 3.66 µM [falling, full curve, poor fit]. For the same compound, under setting [2], the half-maximal activity concentration (AC50) is 6.51 µM [falling, single point].

Regarding `O=C(OCc1nc2ccc(Cl)cc2n1CCO)c1ccc(O)cc1`, the cell number change came out at 24.3%.

With `COc1ccc(C)cc1S(=O)(=O)Nc1cccnc1`, the cell number change worked out at 58.3%. For the same compound, the AC50 under setting [1] was 29.1 µM [rising, single point].

With `Cn1c(SCC(=O)N2CCOCC2)nnc1-c1ccco1`, the cell number change amounted to 19.2%. Also, the AC50 under setting [1] is 0.0058 µM [rising, full curve, poor fit].

On to `CC(C)CCNC(=O)c1ccc(Cn2c(=S)[nH]c3ccccc3c2=O)cc1`, for which the cell number change amounted to 82.4%. Besides, the AC50 under setting [1] is 4.11 µM [rising, partial curve, poor fit].

Turning to `CCc1nnc(NS(=O)(=O)c2ccc(NCc3cc(Br)ccc3O)cc2)s1`, the cell number change is -30.2%. For the same compound, the concentration at half-maximal activity (AC50) under setting [1] was 29.1 µM [falling, single point]. Also, under setting [2], the AC50 is 11.6 µM [falling, partial curve].

Turning to `CCCOC(=O)CCc1n[nH]c(=O)[nH]c1=O`, the cell number change is -4.01%. Also, under setting [2], the AC50 is 32.6 µM [falling, single point].

With `COc1ccc(C2N(c3cccc(Cl)c3)C(=O)C3CCCN32)cc1` (stereo unspecified), the cell number change amounted to 12.4%. The AC50 under setting [2] was 0.13 µM [rising, full curve, poor fit].

With `C=CCc1ccc(OCCCCN2CC(C)CC(C)C2)c(OC)c1` (stereo unspecified), the cell number change is -42.5%. Moreover, the concentration at half-maximal activity (AC50) under setting [1] is 29.1 µM [falling, single point].

Regarding `CC(=O)c1ccc(NC(=O)CSc2nc(=O)n3cccc(C)c3n2)cc1`, the cell number change worked out at 37.6%. Besides, the AC50 under setting [1] was 0.326 µM [rising, full curve]. Besides, under setting [2], the half-maximal activity concentration (AC50) is 29.1 µM [rising, partial curve, poor fit].

As for `CC1(C)CC(=O)c2cc(C(=O)Nn3cnnc3)c(=O)n(-c3ccccc3)c2C1`, the cell number change is -10.1%. In addition, under setting [2], the AC50 is 25.9 µM [falling, partial curve, poor fit].

Regarding `COc1cccc(C(=O)Nc2nc(-c3ccccc3)c(-c3ccccc3)o2)c1`, the cell number change is -6.58%. Moreover, the AC50 under setting [1] was 0.13 µM [falling, full curve, poor fit]. For the same compound, under setting [2], the half-maximal activity concentration (AC50) was 1.84 µM [falling, partial curve, poor fit].
